# Assay results: the supplement of paper PMC3334620
# In all, about 33,000 sequences were measured (“E-score (-0.5 to 0.5)”: median about -0.015, highest 2% from about 0.3 on). This is one part of the list.
# Target: T1, Abf1 (UniProt P14164)
# T1 sequence: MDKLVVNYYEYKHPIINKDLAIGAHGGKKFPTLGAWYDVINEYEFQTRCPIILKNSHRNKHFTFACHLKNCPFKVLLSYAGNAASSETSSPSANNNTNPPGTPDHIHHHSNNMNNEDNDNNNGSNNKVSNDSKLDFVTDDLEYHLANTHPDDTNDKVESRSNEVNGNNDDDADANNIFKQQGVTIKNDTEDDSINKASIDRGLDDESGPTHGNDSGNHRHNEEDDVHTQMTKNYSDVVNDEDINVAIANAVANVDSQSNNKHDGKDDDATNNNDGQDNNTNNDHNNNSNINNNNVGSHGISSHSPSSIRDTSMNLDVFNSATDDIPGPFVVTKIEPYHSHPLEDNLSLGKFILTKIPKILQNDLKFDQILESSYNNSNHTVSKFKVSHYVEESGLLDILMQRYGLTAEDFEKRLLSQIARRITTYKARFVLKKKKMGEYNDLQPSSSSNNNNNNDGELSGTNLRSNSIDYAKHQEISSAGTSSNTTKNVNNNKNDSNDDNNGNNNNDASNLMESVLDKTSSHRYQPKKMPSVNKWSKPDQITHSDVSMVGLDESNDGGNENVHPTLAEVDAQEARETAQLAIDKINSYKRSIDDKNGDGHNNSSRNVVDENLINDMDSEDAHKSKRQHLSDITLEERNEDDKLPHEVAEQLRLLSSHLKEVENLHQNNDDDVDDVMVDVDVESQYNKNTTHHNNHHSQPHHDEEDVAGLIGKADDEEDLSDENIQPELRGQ
# Assay: PBM E-score (8-mer binding enrichment) (E-score (-0.5 to 0.5)); higher = stronger / more preferred TF binding
# Conditions: protein concentration: 200 nM; construct: GST-full length
# Outline: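 Universal all-10-mer Agilent arrays, fresh or stripped once, were converted to double-stranded form by primer extension. GST-tagged yeast transcription factors from PURExpress in vitro transcription/translation, full-length or DNA-binding domain only, were applied at about 100-200 nM and detected with fluorescent anti-GST. After masliner normalisation, the Universal PBM Analysis Suite scored each ungapped eight-base word together with its reverse complement by E-score.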
row,Sequence,PBM E-score
1,GGCCAAAC,-0.132
2,CGGCTAGC,0.0226
3,TCCCCGCA,-0.022
4,GTCCGAGA,0.162
5,AAGGGGAT,0.0502
6,ATATTCGC,0.127
7,CAAAGTTG,-0.0599
8,AAGAACAT,0.157
9,CACATCGA,0.0172
10,AAAGACCC,-0.0568
11,ATCAGCAA,0.186
12,ATGCTTGA,0.204
13,ACTGGAGA,-0.174
14,ATCACAAG,0.0427
15,TCGATCCA,-0.00178
16,ATGCGCGA,0.0935
17,CACGACAA,0.25
18,CTCCCCTC,-0.276
19,AAGTACAA,0.0278
20,ATCCGATA,0.0815
21,GGGTATCA,0.116
22,AGAGGACT,-0.354
23,AGGTTTAC,-0.133
24,CTCCCGGA,-0.117
25,AAGATGCG,-0.0486

row,Sequence,PBM E-score
1,GACGTGTA,0.0729
2,AACACGAA,0.205
3,CTGAGAAA,0.047
4,CTCTTTTC,-0.0167
5,CTATGAAC,0.0765
6,GAAGGCTA,-0.162
7,CGGATCCA,0.11
8,AGTAGTCA,0.16
9,AACACCAC,0.00166
10,GCTGAAAA,0.115
11,AGCTTACC,-0.162
12,GAGGTGAC,0.264
13,CCATCATA,-0.0812
14,ACGTCACG,0.326
15,CGGAATGC,-0.183
16,AATGGCCC,-0.247
17,AATAACCT,-0.00028
18,ACATTCAA,-0.0274
19,AGGCATAC,-0.0147
20,GAGTGTCC,-0.0553
21,AACGAGGG,-0.0825
22,CTTATCTC,0.099
23,CAGACCTG,-0.225
24,ACTCAGAA,-0.00208
25,AGGTTAAT,0.146

row,Sequence,PBM E-score
1,AAAGCAGT,-0.0295
2,GAGACAAC,-0.103
3,AGGATTAG,-0.0544
4,CCGGGACA,-0.00626
5,GCTGTACC,-0.344
6,AAGGTGCG,-0.148
7,GGTCGTAA,0.104
8,CGCACGCC,-0.102
9,ACTCTCTG,-0.0879
10,ATTTGTTC,0.264
11,GACATCGA,0.151
12,ATCGAGGA,-0.0858
13,CGCACCGC,-0.309
14,ATGTATTA,0.248
15,AACTCTTA,-0.0475
16,GGCCCGAC,-0.151
17,AAGCTACC,-0.00977
18,TACTCGCA,-0.0237
19,ACACTCAA,0.123
20,GTTACGGA,0.0726
21,AACGGTCC,0.185
22,AAACAAGC,0.0103
23,ACCTGCCC,-0.238
24,AATGCCAA,0.099
25,CGCTCACC,-0.192

row,Sequence,PBM E-score
1,AGCACCTG,-0.0667
2,GCTATACC,-0.127
3,TAACCGTA,0.0887
4,GGACCCAA,-0.264
5,GCTATTCA,0.0314
6,AGTCCGGG,-0.103
7,CTGCCTAC,0.09
8,CGTCGCCA,0.177
9,ATCCAGGG,-0.0237
10,CGGGTGAA,0.161
11,GGCCGGAC,-0.14
12,GCCAGCTA,-0.188
13,GAGAGAAA,0.0736
14,CCCGCGCG,-0.0173
15,GACTTTGC,-0.0212
16,GACGGATC,0.103
17,AATACGTG,0.096
18,AGTATCTC,-0.0264
19,AAAACATA,0.0722
20,ATAAATTG,0.115
21,GCTTTAAC,0.00738
22,ATTGATTG,0.101
23,CGTTCACC,-0.00932
24,AAAACGTA,0.0381
25,CTAGGATA,-0.0458

# Look-ups from above:
# Under PBM E-score, AAAACGTA has the entry 0.0381
# Under PBM E-score, TAACCGTA has the entry 0.0887
# Under PBM E-score, GGACCCAA has the entry -0.264
# Under PBM E-score, CGGGTGAA has the entry 0.161

# The list goes on:

row,Sequence,PBM E-score
1,ACGCTATG,0.0878
2,CCATTCCC,-0.163
3,CGTGAACG,0.0977
4,GCGATCAC,0.0858
5,AAAAATAT,0.27
6,ACTCGCCC,-0.2
7,GGCTCAAA,-0.109
8,CCAACCTC,0.0322
9,AGACCAAC,-0.109
10,CAAGGATG,-0.259
11,CTTGGCGA,-0.1
12,AAGAGCTA,0.0764
13,CCTGGAGC,-0.029
14,ACTATTAC,0.0535
15,TATAACCA,0.0986
16,CTAAAGTC,-0.0395
17,CTACATAA,-0.118
18,GTTGCAAC,0.095
19,CATAGGCC,-0.151
20,ACGGCCGG,0.128
21,AATCTTGC,0.0985
22,TAAGCGAA,-0.00629
23,ACATTTGA,0.0645
24,AAGAAACC,-0.0975
25,ACCATCGA,0.0573

row,Sequence,PBM E-score
1,GTCAGCAA,0.0498
2,AGCCATTA,0.0369
3,TGACATCA,0.274
4,ACACGTTC,-0.0194
5,AATGCCGG,-0.0682
6,TAATTAGA,0.018
7,GGCACTCA,-0.142
8,ATAGGGAA,-0.124
9,CTCACTCA,0.0709
10,TGCGCGCA,-0.139
11,ATCCTTCC,-0.16
12,CGACAAGA,0.146
13,ATGGCTCG,-0.0108
14,CAGCATGC,-0.092
15,GAAGCCAA,-0.209
16,CACCGCTG,-0.0261
17,AGAACTAC,-0.0734
18,ATGGATCG,0.105
19,GCTGCTCA,0.118
20,CACAAGAG,-0.0119
21,GAATGCAC,0.165
22,ACCCGCTC,-0.183
23,ATTAATGC,0.0309
24,CGCAAAGA,-0.0219
25,CCATCTAC,-0.0821

row,Sequence,PBM E-score
1,CCAGATGG,0.0293
2,TAAGATTA,0.0635
3,CTCGACGC,0.0733
4,CGGAAATC,0.0655
5,CTGTACAC,-0.0437
6,ACGTTCAC,-0.00741
7,ACTATAGC,-0.108
8,CCCGCCTC,-0.113
9,CCCGGAAG,-0.186
10,AATGGCAA,0.0512
11,AGACGCTA,-0.059
12,ACCACCGC,-0.131
13,CAATTACA,0.0343
14,CATAGAGA,-0.0563
15,CCGGACAG,0.0206
16,CCTAGCAC,-0.181
17,AATGACAC,0.227
18,ATATTAGC,0.017
19,ATAGCGGC,-0.122
20,AGGTCACG,0.235
21,GGTAGGAC,-0.188
22,AAGCACGT,0.217
